Measurements: US20240287104A1, “NUCLIDE LABELLED H-TETRAZINES AND USE THEREOF FOR PET AND SPECT PRETARGETED IMAGING AND RADIONUCLIDE THERAPY” (RIGSHOSPITALET, priority 2020, published 2024)

Experiment: TCO click ability (analytical HPLC)
Format: physicochemical
Conditions: formulated 18F-tetrazine added to TCO (1 mg/mL) in PBS

Row | Compound | TCO click ability (reaction with TCO)
1 | O=C(O)CN(CC(=O)O)Cc1cc(F)cc(-c2nncnn2)c1 [UB-108, 1-Carboxy-N-(carboxymethyl)-N-(3-fluoro-5-(1,2,4,5-tetrazin-3-yl)benzyl)methanaminium 2,2,2-trifluoroacetate] | reacted immediately
2 | O=C(O)CNCc1cc(F)cc(-c2nncnn2)c1 [UB-137, 1-Carboxy-N-(3-fluoro-5-(1,2,4,5-tetrazin-3-yl)benzyl)methanaminium 2,2,2-trifluoroacetate] | reacted immediately
